The test has as its system Pseudomonas aeruginosa. Put plainly: MIC, 96-well serial dilution. Note: key: (-): no inhibition. Type of test: cell-based. The conditions noted are these: strain PA14, starting concentration 66.7 µg/mL, control volume in brackets, read-out: Minimum Inhibitory Concentration (MIC). The procedure: Gentamicin, kanamycin, nystatin, and oxytetracycline were used as positive controls against tested organisms. […] Epothilone B and methanol were used as positive and negative control, respectively.
The polyketides 1–5 were evaluated for their antimicrobial activity against selected microorganisms (Table 3) and cytotoxicity against two mammalian cell lines, HeLa cells KB3.1 and mouse fibroblast cell line L929 (Table 4). The starting concentration for antimicrobial assay and cytotoxicity assay were 66.7 and 300 µg/mL, respectively and the substances were dissolved in MeOH (1 mg/mL). […] Results were expressed as MIC or minimum inhibitory concentration (μg/mL) and IC50 or half maximal inhibitory concentration (μM) (Table 3 and Table 4).

Converted amounts (≈) assume the structure as drawn.

Take `CNC(C)C1CCC(N)C(OC2C(N)CC(N)C(OC3OCC(C)(O)C(NC)C3O)C2O)O1` (stereo not shown) [G, Gentamicin, reference compound]: the MIC worked out at 0.8 µg/mL (≈ 1.68 µM).

The values above are taken from article PMC7226469, “Polyketide-Derived Secondary Metabolites from a Dothideomycetes Fungus, Pseudopalawania siamensis gen. et sp. nov., (Muyocopronales) with Antimicrobial and Cytotoxic Activities” (Biomolecules, 2020).
